PubChem BioAssay AID1259308 | NCATS | 2017
The whole screen tested about 59,000 reagents; below is a random part of them. About 1,510 of all reagents (2.6%) count as active. 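Calls use total luciferase alone and ignore viability, so some active siRNAs may act by altering cell number.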

Purpose: 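Candidate targets for better recombinant protein yield in mammalian cells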 (primary screen)
System: human HEK293 embryonic kidney cells stably expressing firefly luciferase (HEK-CMV-Luc2-Hygro)
Reagents: single siRNA against human genes, 0.8 pmol siRNA per well
Timing: 72 h
Read-out: 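Reporter luminescence and viable-cell signal on separate replicate plates, given as percent of non-targeting control and median/MAD z-scores, plus per-cell luciferase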
Reading the numbers: total luciferase, z-score and total luciferase, % of control: higher = more reporter protein produced; luciferase per cell, z-score: higher = more reporter output per viable cell; viable cells, % of control: higher = more viable cells
Call rule: 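Active when the median/MAD z-score for overall luciferase is greater than 3; a gene was taken forward for validation with new siRNAs if at least two of its three siRNAs passed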
Calls: active = raised luciferase; inactive = no rise

gene knocked down | PubChem SID | total luciferase, z-score | total luciferase, % of control | luciferase per cell, z-score | viable cells, % of control | activity call
HTR3D (5-hydroxytryptamine receptor 3D) | SID160760906 | -0.416 | 73.6 | 0.242 | 77.2 | inactive
HTR3D (5-hydroxytryptamine receptor 3D) | SID160760907 | 1.07 | 103 | 1.04 | 87.6 | inactive
HTR3D (5-hydroxytryptamine receptor 3D) | SID160760908 | -0.344 | 75 | -0.391 | 92.9 | inactive
BLNK (B cell linker) | SID160739139 | 1.31 | 108 | 0.959 | 93.6 | inactive
BLNK (B cell linker) | SID160739140 | 0.434 | 90.5 | 0.0111 | 101 | inactive
BLNK (B cell linker) | SID160739141 | 0.349 | 88.8 | 0.0125 | 98.9 | inactive
GFOD1 (Gfo/Idh/MocA-like oxidoreductase domain containing 1) | SID160741680 | 0.551 | 92.8 | 1.16 | 76.4 | inactive
GFOD1 (Gfo/Idh/MocA-like oxidoreductase domain containing 1) | SID160741681 | -1.17 | 58.7 | 0.118 | 63.5 | inactive
GFOD1 (Gfo/Idh/MocA-like oxidoreductase domain containing 1) | SID160741682 | 1.1 | 104 | 0.166 | 111 | inactive
GFOD1 (Gfo/Idh/MocA-like oxidoreductase domain containing 1) | SID160753252 | -0.647 | 69 | -1.33 | 110 | inactive
GFOD1 (Gfo/Idh/MocA-like oxidoreductase domain containing 1) | SID160753253 | 0.34 | 88.6 | -0.324 | 108 | inactive
GFOD1 (Gfo/Idh/MocA-like oxidoreductase domain containing 1) | SID160753254 | -0.544 | 71.1 | -1.28 | 111 | inactive
FBXO45 (F-box protein 45) | SID160730754 | -0.128 | 79.3 | -0.832 | 110 | inactive
FBXO45 (F-box protein 45) | SID160760915 | 0.483 | 91.5 | 0.653 | 86.1 | inactive
FBXO45 (F-box protein 45) | SID160760916 | -1.06 | 60.8 | -0.94 | 87.1 | inactive
SKI (SKI proto-oncogene) | SID160716758 | -1.79 | 46.3 | -2.58 | 102 | inactive
SKI (SKI proto-oncogene) | SID160716759 | -1.3 | 56.1 | -0.842 | 78.3 | inactive
SKI (SKI proto-oncogene) | SID160716760 | -0.727 | 67.4 | -0.575 | 87.7 | inactive
FBN1 (fibrillin 1) | SID160764138 | 0.142 | 84.7 | 0.0206 | 94.1 | inactive
FBN1 (fibrillin 1) | SID160764147 | 0.377 | 89.4 | -0.0203 | 100 | inactive
FBN1 (fibrillin 1) | SID160764158 | -1.8 | 46 | -1.67 | 79.7 | inactive

Next part, starting with the last 3 of the part before.
gene knocked down | PubChem SID | total luciferase, z-score | total luciferase, % of control | luciferase per cell, z-score | viable cells, % of control | activity call
FBN1 (fibrillin 1) | SID160764138 | 0.142 | 84.7 | 0.0206 | 94.1 | inactive
FBN1 (fibrillin 1) | SID160764147 | 0.377 | 89.4 | -0.0203 | 100 | inactive
FBN1 (fibrillin 1) | SID160764158 | -1.8 | 46 | -1.67 | 79.7 | inactive
CALML3 (calmodulin like 3) | SID160735935 | -0.738 | 67.2 | -0.453 | 84.6 | inactive
CALML3 (calmodulin like 3) | SID160735946 | 0.91 | 100 | 0.928 | 87.5 | inactive
CALML3 (calmodulin like 3) | SID160735956 | -0.103 | 79.8 | 0.416 | 80 | inactive
SLC12A7 | SID160729094 | -0.877 | 64.5 | -0.134 | 74.6 | inactive
SLC12A7 | SID160729095 | -0.869 | 64.6 | -0.261 | 77.3 | inactive
SLC12A7 | SID160729096 | 2 | 122 | 1.09 | 102 | inactive
TAAR9 (trace amine associated receptor 9) | SID160730603 | -1.24 | 57.3 | -1.98 | 108 | inactive
TAAR9 (trace amine associated receptor 9) | SID160757376 | 0.859 | 99 | 1.39 | 76.7 | inactive
TAAR9 (trace amine associated receptor 9) | SID160757379 | 1.77 | 117 | 0.937 | 102 | inactive
PER1 (period circadian regulator 1) | SID160714104 | 0.537 | 92.6 | 1.73 | 65.5 | inactive
PER1 (period circadian regulator 1) | SID160714105 | 1.53 | 112 | 1.06 | 95 | inactive
PER1 (period circadian regulator 1) | SID160714106 | -0.493 | 72.1 | -0.926 | 103 | inactive
DNAL1 (dynein axonemal light chain 1) | SID160751187 | -1.38 | 54.5 | -1.1 | 81.2 | inactive
DNAL1 (dynein axonemal light chain 1) | SID160751188 | 1.56 | 113 | 0.498 | 111 | inactive
DNAL1 (dynein axonemal light chain 1) | SID160751189 | 2.08 | 123 | 1.68 | 88.4 | inactive
ANKRD16 (ankyrin repeat domain 16) | SID160741853 | 1.47 | 111 | 1.28 | 88.6 | inactive
ANKRD16 (ankyrin repeat domain 16) | SID160741854 | 0.709 | 96 | 0.435 | 95.6 | inactive
ANKRD16 (ankyrin repeat domain 16) | SID160741855 | -1.28 | 56.5 | -0.926 | 80.5 | inactive
